These are yes or no findings as the source states them, for the method shown. Binding seen in cells or lysates may run through a third protein. Some results given as binding are weak or reduced against the parent protein; the word gives no strength.
How the values were obtained:
[1] = target: T1, ɛ‐sarcoglycan (mouse, endogenous; all isoforms caught by the pan anti‐ɛ‐sarcoglycan antibody) (mouse (endogenous in brain and lung)) (UniProt O70258); experiment: co-IP; immunoaffinity purification with the pan anti‐ɛ‐sarcoglycan antibody from mouse brain and lung solubilized in RIPA buffer, Western blot
T1 sequence: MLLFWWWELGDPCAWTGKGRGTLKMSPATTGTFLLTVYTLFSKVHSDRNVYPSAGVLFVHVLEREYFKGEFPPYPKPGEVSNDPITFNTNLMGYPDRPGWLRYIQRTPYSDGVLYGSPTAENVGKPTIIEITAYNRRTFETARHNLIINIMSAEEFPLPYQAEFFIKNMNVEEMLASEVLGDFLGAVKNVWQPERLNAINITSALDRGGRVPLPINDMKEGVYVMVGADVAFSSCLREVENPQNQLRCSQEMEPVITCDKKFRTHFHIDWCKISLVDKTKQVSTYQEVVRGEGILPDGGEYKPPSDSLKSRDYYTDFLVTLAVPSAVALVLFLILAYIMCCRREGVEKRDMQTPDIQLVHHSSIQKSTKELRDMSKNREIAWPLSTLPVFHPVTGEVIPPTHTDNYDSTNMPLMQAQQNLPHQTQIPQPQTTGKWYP

[2] = target: T1, ɛ‐sarcoglycan (mouse, endogenous; all isoforms caught by the pan anti‐ɛ‐sarcoglycan antibody) (mouse (endogenous in brain and lung)); experiment: co-IP; immunoaffinity purification with the pan anti‐ɛ‐sarcoglycan antibody from mouse brain and lung solubilized in 1% digitonin, Western blot

B1: β‐dystroglycan (mouse, endogenous) (protein, UniProt Q62165 652-893)
chain: SIVVEWTNNTLPLEPCPKEQIIGLSRRIADENGKPRPAFSNALEPDFKALSIAVTGSGSCRHLQFIPVAPPSPGSSAAPATEVPDRDPEKSSEDDVYLHTVIPAVVVAAILLIAGIIAMICYRKKRKGKLTLEDQATFIKKGVPIIFADELDDSKPPPSSSMPLILQEEKAPLPPPEYPNQSMPETTPLNQDTVGEYTPLRDEDPNAPPYQPPPPFTAPMEGKGSRPKNMTPYRSPPPYVPP
binding [1]: no binding (condition: tissue extracted in RIPA buffer) | binding [2]: binds
